# Measured values: the supplement of paper PMC10849652
# Sequences of proteins named here, by UniProt entry; tags and fusion partners are left off. A change or cut given only in a name is not applied to a line headed by its entry.
# UniProt Q9BVV7: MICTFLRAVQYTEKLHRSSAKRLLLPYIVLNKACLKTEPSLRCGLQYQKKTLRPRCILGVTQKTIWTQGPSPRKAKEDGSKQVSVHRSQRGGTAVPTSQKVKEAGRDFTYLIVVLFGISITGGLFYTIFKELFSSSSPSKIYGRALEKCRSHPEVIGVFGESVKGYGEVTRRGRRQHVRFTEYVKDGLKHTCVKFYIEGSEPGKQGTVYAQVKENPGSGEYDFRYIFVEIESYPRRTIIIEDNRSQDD
# UniProt Q969Z0: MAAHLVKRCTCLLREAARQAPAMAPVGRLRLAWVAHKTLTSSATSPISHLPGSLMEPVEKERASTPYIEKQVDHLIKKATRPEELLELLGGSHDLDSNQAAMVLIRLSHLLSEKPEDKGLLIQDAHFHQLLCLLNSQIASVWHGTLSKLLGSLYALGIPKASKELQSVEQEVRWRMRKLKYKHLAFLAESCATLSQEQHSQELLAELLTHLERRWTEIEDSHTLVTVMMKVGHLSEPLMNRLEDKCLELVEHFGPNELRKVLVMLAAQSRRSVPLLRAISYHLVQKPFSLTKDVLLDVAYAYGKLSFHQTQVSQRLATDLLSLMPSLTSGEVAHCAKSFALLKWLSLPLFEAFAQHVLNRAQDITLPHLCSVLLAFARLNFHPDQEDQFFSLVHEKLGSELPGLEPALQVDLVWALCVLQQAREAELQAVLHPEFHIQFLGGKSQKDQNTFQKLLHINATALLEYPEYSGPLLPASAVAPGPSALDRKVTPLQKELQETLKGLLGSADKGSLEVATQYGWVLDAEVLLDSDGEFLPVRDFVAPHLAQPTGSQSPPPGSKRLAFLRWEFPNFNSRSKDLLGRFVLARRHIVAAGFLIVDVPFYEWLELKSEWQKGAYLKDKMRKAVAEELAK
# UniProt O14776: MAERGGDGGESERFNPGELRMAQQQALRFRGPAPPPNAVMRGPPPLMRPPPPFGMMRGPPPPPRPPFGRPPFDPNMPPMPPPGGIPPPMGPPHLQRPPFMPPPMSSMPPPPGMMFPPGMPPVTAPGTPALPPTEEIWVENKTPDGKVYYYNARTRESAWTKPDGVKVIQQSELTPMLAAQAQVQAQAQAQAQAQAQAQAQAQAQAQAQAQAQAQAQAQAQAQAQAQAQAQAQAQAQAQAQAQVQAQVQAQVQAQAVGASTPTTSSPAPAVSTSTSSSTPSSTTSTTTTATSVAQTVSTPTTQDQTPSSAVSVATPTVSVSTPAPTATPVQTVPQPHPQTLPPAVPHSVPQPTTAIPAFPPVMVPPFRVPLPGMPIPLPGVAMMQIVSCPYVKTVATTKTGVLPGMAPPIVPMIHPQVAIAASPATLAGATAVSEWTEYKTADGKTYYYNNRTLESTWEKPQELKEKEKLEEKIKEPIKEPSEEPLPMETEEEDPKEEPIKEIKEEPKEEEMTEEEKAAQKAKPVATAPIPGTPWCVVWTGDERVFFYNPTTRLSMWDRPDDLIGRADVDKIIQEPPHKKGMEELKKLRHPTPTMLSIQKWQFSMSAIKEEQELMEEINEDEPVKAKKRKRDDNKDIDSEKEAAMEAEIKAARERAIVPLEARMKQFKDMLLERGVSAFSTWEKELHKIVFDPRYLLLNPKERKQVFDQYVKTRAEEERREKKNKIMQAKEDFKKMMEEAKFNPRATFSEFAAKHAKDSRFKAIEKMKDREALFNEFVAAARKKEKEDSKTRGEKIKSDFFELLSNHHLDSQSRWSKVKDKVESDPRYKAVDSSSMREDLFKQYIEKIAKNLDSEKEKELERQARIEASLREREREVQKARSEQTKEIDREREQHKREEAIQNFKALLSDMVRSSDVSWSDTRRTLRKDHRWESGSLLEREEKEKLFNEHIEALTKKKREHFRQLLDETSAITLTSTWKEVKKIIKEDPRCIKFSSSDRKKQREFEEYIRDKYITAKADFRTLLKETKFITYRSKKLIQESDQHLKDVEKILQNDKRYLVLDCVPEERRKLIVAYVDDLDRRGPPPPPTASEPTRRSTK
# UniProt P19532: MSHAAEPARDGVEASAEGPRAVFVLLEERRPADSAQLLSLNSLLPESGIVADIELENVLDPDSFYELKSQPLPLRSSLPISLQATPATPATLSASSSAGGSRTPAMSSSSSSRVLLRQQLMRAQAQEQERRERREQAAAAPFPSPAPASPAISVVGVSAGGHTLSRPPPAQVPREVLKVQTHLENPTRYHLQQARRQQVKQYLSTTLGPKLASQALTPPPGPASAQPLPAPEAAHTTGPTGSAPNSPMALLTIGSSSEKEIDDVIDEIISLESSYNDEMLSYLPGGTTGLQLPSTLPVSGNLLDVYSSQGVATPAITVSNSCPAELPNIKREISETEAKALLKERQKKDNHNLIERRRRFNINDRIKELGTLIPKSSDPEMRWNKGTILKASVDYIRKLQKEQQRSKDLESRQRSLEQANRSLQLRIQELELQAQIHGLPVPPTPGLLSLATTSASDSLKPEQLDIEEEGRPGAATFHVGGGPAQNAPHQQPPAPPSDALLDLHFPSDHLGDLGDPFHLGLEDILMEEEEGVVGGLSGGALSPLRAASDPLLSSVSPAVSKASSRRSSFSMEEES
# UniProt Q9UDY2: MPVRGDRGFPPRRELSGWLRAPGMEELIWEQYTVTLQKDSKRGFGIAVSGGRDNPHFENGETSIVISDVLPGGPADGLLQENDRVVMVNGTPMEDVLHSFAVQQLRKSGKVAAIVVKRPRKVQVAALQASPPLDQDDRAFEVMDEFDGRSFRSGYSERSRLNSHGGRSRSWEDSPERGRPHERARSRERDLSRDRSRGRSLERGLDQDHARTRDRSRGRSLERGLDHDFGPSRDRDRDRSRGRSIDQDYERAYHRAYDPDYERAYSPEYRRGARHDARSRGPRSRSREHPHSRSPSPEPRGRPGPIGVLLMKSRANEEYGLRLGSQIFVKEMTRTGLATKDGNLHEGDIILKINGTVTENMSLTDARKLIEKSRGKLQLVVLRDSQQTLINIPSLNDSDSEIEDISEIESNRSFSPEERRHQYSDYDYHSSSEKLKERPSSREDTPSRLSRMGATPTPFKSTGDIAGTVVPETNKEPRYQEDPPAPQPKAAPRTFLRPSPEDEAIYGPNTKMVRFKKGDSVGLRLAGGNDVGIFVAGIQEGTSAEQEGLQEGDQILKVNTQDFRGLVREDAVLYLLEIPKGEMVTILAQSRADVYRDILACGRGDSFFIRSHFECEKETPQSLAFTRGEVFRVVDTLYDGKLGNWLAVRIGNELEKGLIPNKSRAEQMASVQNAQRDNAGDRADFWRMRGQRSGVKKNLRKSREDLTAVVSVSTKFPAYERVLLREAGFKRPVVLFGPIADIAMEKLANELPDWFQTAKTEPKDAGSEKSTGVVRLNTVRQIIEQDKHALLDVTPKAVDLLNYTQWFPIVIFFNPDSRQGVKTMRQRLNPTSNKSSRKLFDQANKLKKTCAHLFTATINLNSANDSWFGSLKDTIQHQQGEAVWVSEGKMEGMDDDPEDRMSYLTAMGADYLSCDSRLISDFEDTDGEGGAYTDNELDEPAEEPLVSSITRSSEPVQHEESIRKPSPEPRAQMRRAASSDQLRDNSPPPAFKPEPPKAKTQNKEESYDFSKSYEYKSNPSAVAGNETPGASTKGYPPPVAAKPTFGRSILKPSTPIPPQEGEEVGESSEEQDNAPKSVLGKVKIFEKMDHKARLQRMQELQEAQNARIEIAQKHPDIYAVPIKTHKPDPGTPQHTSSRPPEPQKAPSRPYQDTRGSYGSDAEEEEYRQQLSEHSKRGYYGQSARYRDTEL
# UniProt Q15170: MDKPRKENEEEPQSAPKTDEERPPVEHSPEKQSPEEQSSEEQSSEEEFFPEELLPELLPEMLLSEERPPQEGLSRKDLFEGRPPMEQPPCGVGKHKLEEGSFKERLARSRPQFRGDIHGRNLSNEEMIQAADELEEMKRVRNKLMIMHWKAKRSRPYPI
# UniProt Q9HA65: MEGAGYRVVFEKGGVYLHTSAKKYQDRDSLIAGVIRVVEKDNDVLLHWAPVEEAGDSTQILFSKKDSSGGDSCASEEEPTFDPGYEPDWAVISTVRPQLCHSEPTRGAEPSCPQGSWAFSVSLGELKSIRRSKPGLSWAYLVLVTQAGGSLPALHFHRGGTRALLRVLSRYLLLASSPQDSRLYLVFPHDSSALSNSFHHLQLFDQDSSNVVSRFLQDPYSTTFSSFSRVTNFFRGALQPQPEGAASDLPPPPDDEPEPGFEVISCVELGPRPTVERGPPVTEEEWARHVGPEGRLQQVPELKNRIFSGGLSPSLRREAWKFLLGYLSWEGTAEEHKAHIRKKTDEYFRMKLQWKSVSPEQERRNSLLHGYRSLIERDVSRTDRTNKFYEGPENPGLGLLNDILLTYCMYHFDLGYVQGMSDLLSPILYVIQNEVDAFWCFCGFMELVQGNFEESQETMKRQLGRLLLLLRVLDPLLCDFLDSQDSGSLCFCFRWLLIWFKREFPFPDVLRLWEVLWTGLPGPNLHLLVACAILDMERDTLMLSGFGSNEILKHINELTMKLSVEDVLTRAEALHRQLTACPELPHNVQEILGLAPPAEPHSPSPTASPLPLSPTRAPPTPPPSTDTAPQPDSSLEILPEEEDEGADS
# UniProt O75663: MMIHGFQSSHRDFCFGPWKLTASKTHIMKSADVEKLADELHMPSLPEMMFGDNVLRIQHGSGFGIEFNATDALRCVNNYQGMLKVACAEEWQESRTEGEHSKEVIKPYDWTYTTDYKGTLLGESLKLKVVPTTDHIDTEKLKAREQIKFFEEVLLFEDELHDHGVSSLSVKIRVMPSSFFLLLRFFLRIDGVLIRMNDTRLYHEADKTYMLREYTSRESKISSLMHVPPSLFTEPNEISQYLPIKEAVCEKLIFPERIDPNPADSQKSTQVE
# UniProt O00142: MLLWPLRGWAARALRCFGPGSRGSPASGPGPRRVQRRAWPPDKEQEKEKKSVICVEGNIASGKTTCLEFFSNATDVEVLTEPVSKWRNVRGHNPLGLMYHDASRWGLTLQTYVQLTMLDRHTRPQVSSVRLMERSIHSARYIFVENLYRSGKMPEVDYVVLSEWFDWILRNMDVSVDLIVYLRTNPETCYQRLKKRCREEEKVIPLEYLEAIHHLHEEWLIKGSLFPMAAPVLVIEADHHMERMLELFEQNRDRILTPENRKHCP
# UniProt Q9P2M4: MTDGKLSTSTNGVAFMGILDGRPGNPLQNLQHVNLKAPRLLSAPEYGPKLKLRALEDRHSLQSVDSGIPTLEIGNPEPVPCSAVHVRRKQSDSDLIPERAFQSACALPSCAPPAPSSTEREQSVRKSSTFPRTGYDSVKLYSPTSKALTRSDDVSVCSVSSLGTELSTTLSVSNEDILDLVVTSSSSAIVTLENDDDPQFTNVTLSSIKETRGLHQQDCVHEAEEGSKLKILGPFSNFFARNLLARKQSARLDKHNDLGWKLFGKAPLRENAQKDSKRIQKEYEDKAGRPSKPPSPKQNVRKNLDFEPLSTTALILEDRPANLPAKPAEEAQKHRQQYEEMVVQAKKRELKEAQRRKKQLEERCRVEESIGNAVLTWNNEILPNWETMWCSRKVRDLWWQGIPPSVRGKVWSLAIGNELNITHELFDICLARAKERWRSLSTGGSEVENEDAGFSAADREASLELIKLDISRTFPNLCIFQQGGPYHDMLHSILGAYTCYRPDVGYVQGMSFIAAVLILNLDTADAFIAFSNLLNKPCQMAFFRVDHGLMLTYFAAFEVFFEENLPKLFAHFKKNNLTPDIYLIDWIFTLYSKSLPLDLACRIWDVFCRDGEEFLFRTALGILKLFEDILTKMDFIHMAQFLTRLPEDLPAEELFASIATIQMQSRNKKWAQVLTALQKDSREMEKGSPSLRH
# UniProt Q9P0N9: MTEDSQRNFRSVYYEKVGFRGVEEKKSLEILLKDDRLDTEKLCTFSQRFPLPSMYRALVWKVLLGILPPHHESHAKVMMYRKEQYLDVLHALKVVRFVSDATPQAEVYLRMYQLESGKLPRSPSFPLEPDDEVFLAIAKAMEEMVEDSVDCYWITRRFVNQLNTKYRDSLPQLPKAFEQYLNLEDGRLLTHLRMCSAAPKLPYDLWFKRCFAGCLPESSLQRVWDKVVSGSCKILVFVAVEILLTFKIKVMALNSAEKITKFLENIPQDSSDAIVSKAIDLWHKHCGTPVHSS
# UniProt Q9P016: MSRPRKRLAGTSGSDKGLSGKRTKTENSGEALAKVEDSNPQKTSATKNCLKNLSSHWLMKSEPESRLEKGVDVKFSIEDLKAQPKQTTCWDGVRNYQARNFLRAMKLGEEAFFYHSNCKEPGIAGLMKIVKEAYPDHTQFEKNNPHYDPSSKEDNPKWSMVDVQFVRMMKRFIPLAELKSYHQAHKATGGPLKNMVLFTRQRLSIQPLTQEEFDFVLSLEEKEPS
# UniProt P04183: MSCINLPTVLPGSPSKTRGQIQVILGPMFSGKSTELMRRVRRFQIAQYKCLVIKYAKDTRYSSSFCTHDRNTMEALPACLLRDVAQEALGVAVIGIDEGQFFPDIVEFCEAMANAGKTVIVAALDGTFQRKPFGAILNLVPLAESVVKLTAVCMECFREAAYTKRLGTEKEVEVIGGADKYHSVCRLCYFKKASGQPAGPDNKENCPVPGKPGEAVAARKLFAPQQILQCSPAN
# The other results are listed elsewhere or left out.
# Tests used:
# Assay in all cases: log2 fold change, soluble protein after heating vs DMSO (PISA); higher = thermal stabilisation; K562 cells, 10 uM, 30 min; active = over 0.2 and 3.5 SD of the protein, either way, in both replicates (recomputed)
# [1] = compound: CC1=C(C=C(C=C1)NC(=O)C2=CC(=CC=C2)C(C)(C)C#N)NC3=CC4=C(C=C3)N=CN(C4=O)C
# In short: (§1)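 Aliquots of K562 cells (2×10^6 cells/mL) treated with 10 μM compound for 30 min were heated for 3 min over 48°C-58°C. After pooling and extraction in PBS with 0.5% NP-40 at 4°C, soluble protein from a 21,000xg, 90 min spin was quantified by TMTpro 16plex LC-MS/MS with channel sums equalised. Thermal stability is expressed against control samples, from duplicates, as a log2 fold change.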
# [2] = compound: CC1=C(C=C(C=C1)NC(=O)C2=CC(=CC=C2)N(C)C)NC(=O)C3=CC=C(C=C3)O
# In short: as §1
# [3] = compound: CC1=CC=C(C=C1)SC2=C3C=C(SC3=CN=C2)C(=O)N
# In short: as §1
# [4] = compound: CC1=NC(=CC=C1)C2=C(N=C(N2)C(C)(C)C)C3=CC4=NC=CN=C4C=C3
# In short: as §1
# [5] = compound: CCCCN(Cc1ccc(C(=O)NO)cc1)C(=O)Nc1ccccc1 [Nexturastat A]
# In short: as §1
# [6] = compound: CCCS(=O)(=O)Nc1ccc(F)c(C(=O)c2c[nH]c3ncc(-c4ccc(Cl)cc4)cc23)c1F [vemurafenib]
# In short: as §1
# [7] = compound: CCCS(=O)(=O)Nc1ccc(F)c(C(=O)c2c[nH]c3ncc(Cl)cc23)c1F
# In short: as §1
# [8] = compound: CCCc1cc(C)[nH]c(=O)c1CNC(=O)c1cc(-c2ccnc(N3CCN(C)CC3)c2)cc2c1cnn2C(C)C
# In short: as §1
# [9] = compound: CCN(CC)Cc1ccc2cc(COC(=O)Nc3ccc(C(=O)NO)cc3)ccc2c1 [givinostat]
# In short: as §1
# [10] = compound: CCN(CCCOc1ccc2c(Nc3cc(CC(=O)Nc4cccc(F)c4)[nH]n3)ncnc2c1)CCOP(=O)(O)O [barasertib]
# In short: as §1
# [11] = compound: CC[C@@H]1C(=O)N(C)c2cnc(Nc3ccc(C(=O)NC4CCN(C)CC4)cc3OC)nc2N1C1CCCC1
# In short: as §1
# [12] = compound: CC[C@@H]1C(=O)N(C)c2cnc(Nc3ccc(C(=O)N[C@H]4CC[C@H](N5CCN(CC6CC6)CC5)CC4)cc3OC)nc2N1C(C)C [volasertib]
# In short: as §1
# [13] = compound: CC[C@H](C)N1C=C(C2=C(C=C(C=C21)C3=CN=C(C=C3)N4CCNCC4)C(=O)NCC5=C(C=C(NC5=O)C)C)C
# In short: as §1
# [14] = compound: CC[C@H](C)[C@@H](C(=O)N[C@@H]([C@@H](C)O)C(=O)N[C@@H](CC(C)C)C(=O)[C@]1(CO1)C)NC(=O)[C@H]([C@@H](C)CC)N(C)C(=O)C [epoxomicin]
# In short: as §1
# [15] = compound: CCn1cc(-c2ccnc3[nH]c(-c4cccc(CN(C)C)c4)cc23)c(-c2ccc(NC(=O)N(C)C)cc2)n1
# In short: as §1
# [16] = compound: CN(C)CC(=O)Nc1ccc2[nH]c(=O)c3ccccc3c2c1
# In short: as §1
# [17] = compound: CN1C2=C(C3=C1C(=O)N(N=C3)CC4=CC(=CC=C4)N)SC(=C2)S(=O)C
# In short: as §1
# [18] = compound: CN1CCC(CNc2ccc3ncc(-c4cccc(OC(F)(F)F)c4)n3n2)CC1
# In short: as §1
# [19] = compound: CCn1c(C(=O)N(C2CC2)C2CC2)cc2c3c(ncn3C)c(Nc3cc(C)n(C)n3)nc21
# In short: as §1
# [20] = compound: CN(CCOC1=CC=C(C=C1)C[C@H]2C(=O)NC(=O)S2)C3=CC=CC=N3 (racemic) [rosiglitazone]
# In short: as §1
Target,log2 fold change [1],log2 fold change [2],log2 fold change [3],log2 fold change [4],log2 fold change [5],log2 fold change [6],log2 fold change [7],log2 fold change [8],log2 fold change [9],log2 fold change [10],log2 fold change [11],log2 fold change [12],log2 fold change [13],log2 fold change [14],log2 fold change [15],log2 fold change [16],log2 fold change [17],log2 fold change [18],log2 fold change [19],log2 fold change [20]
TIMM21 (UniProt Q9BVV7),inactive: 0.014,inactive: 0.008,inactive: 0.035,inactive: 0.058,inactive: -0.121,inactive: 0.032,inactive: 0.067,inactive: -0.005,inactive: 0.005,inactive: 0.034,inactive: -0.133,active: -0.286,inactive: 0.034,inactive: -0.041,inactive: -0.028,inactive: -0.025,inactive: -0.044,inactive: -0.227,,
TBRG4 (UniProt Q969Z0),inactive: 0.08,inactive: -0.006,inactive: 0.073,inactive: 0.151,inactive: -0.072,inactive: 0.05,inactive: 0.185,inactive: -0.059,inactive: 0.099,inactive: 0.125,inactive: -0.361,inactive: -0.583,inactive: -0.003,inactive: 0.12,inactive: 0.009,inactive: 0.111,inactive: 0.047,active: -1.19,,
TCERG1 (UniProt O14776),inactive: 0.061,inactive: -0.147,inactive: 0.08,inactive: 0.077,inactive: -0.144,inactive: 0.118,inactive: 0.135,inactive: -0.006,inactive: 0.146,inactive: 0.107,inactive: -0.145,active: -0.445,inactive: 0.133,inactive: 0.116,inactive: -0.032,inactive: 0.135,inactive: -0.038,inactive: -0.136,,
TFAM (UniProt Q00059),inactive: 0.039,inactive: -0.004,inactive: -0.036,inactive: -0.036,inactive: 0.079,inactive: -0.05,inactive: -0.043,inactive: -0.033,inactive: -0.055,inactive: -0.023,inactive: 0.058,inactive: 0.059,inactive: 0.007,inactive: -0.053,inactive: 0.062,inactive: -0.074,inactive: 0.098,inactive: 0.049,,
TFE3 (UniProt P19532),inactive: 0,inactive: 0.052,,inactive: 0.102,inactive: 0.034,,,,inactive: 0.062,inactive: 0.048,,,,inactive: 0.063,,,,,inactive: -0.08,inactive: 0.137
TJP2 isoform 7 (UniProt Q9UDY2),inactive: -0.017,inactive: -0.006,inactive: 0.007,inactive: -0.014,inactive: 0.048,inactive: 0.09,inactive: 0.101,inactive: -0.194,inactive: 0.071,inactive: 0.102,inactive: -0.128,inactive: -0.298,inactive: -0.018,inactive: 0.01,inactive: -0.083,inactive: 0.015,inactive: -0.021,inactive: -0.094,,
THADA (UniProt Q6YHU6),inactive: 0.03,inactive: -0.038,inactive: 0.019,inactive: -0.01,inactive: -0.021,inactive: 0.038,inactive: 0.06,inactive: 0.039,inactive: -0.006,inactive: 0.07,inactive: -0.003,inactive: -0.017,inactive: 0.011,inactive: -0.007,inactive: 0.057,inactive: 0.051,inactive: -0.019,inactive: -0.146,,
TCEAL1 isoform 2 (UniProt Q15170),inactive: -0.143,inactive: 0.126,inactive: 0.108,inactive: -0.111,,inactive: -0.048,inactive: -0.149,,,,,inactive: -0.106,,,inactive: 0.081,inactive: 0.069,,inactive: -0.194,,
TBC1D17 (UniProt Q9HA65),inactive: -0.27,inactive: 0.035,,,,inactive: -0.089,,inactive: -0.042,inactive: 0.028,inactive: -0.327,inactive: -0.094,,inactive: 0.064,,inactive: -0.024,inactive: 0.018,inactive: 0.019,inactive: -0.05,inactive: -0.008,inactive: 0.006
TIPRL (UniProt O75663),inactive: 0.011,inactive: -0.017,inactive: 0.007,inactive: 0.013,inactive: -0.05,inactive: 0.022,inactive: 0.046,inactive: 0.02,inactive: 0.032,inactive: -0.007,inactive: -0.061,active: -0.23,inactive: 0.072,inactive: 0.025,inactive: -0.057,inactive: 0.032,inactive: 0.021,inactive: -0.214,,
TK2 isoform 6 (UniProt O00142),inactive: -0.217,inactive: 0.001,,inactive: -0.127,inactive: -0.172,inactive: -0.073,,inactive: -0.024,inactive: -0.207,inactive: 0.024,inactive: 0.273,,inactive: -0.019,inactive: -0.069,inactive: -0.229,inactive: -0.159,inactive: -0.01,inactive: -0.018,inactive: -0.034,inactive: 0.451
TELO2 (UniProt Q9Y4R8),inactive: 0.04,inactive: -0.026,inactive: 0.028,inactive: -0.057,inactive: 0.143,inactive: 0.12,inactive: 0.089,inactive: 0.014,inactive: 0.084,inactive: 0.05,inactive: -0.083,active: -0.359,inactive: -0.017,inactive: -0.093,inactive: 0.005,inactive: 0.123,inactive: 0.154,inactive: -0.052,,
TIMM29 (UniProt Q9BSF4),inactive: -0.007,inactive: -0.015,inactive: -0.023,inactive: -0.102,inactive: -0.037,inactive: -0.031,inactive: 0.033,inactive: 0,inactive: 0.014,inactive: 0.004,inactive: 0.044,inactive: -0.071,inactive: 0.019,inactive: -0.013,inactive: -0.035,inactive: 0,inactive: -0.103,inactive: 0.062,,
TBC1D14 (UniProt Q9P2M4),inactive: 0.053,inactive: 0.041,inactive: 0.023,,inactive: -0.019,inactive: 0.047,inactive: 0.013,inactive: -0.173,inactive: 0.014,,,inactive: -0.399,,inactive: -0.07,inactive: -0.077,inactive: 0.118,,inactive: -0.201,inactive: -0.056,
TBC1D7 (UniProt Q9P0N9),inactive: 0.334,,inactive: 0.036,,inactive: 0.018,,inactive: 0.132,,inactive: 0.249,inactive: 0.037,,inactive: -0.367,,inactive: 0.16,,,,,inactive: -0.127,inactive: 0.185
THYN1 (UniProt Q9P016),inactive: 0.008,inactive: 0.013,inactive: 0.003,inactive: 0.056,inactive: -0.022,inactive: -0.004,inactive: -0.004,inactive: 0.003,inactive: -0.135,inactive: 0.008,inactive: 0.059,inactive: 0.09,inactive: 0.048,inactive: 0.016,inactive: -0.04,inactive: -0.004,inactive: -0.09,inactive: 0.09,,
TK1 (UniProt P04183),inactive: -0.035,inactive: 0.001,inactive: 0.01,inactive: -0.004,inactive: 0.014,inactive: 0.003,inactive: -0.012,inactive: -0.095,inactive: 0.011,inactive: 0.011,inactive: 0.039,inactive: 0.062,inactive: -0.039,inactive: 0.084,inactive: 0.001,inactive: -0.009,inactive: -0.075,inactive: -0.046,,
TDRD15 (UniProt B5MCY1),inactive: -0.309,inactive: -0.293,,,,inactive: -0.066,,inactive: -0.093,inactive: 0.035,,inactive: -0.241,,,,inactive: 0.149,inactive: -0.176,inactive: 0.129,inactive: -0.288,inactive: -0.06,

# Four entries from above in another layout:
Target	log2 fold change [1]	log2 fold change [2]	log2 fold change [3]	log2 fold change [4]	log2 fold change [5]	log2 fold change [6]	log2 fold change [7]	log2 fold change [8]	log2 fold change [9]	log2 fold change [10]	log2 fold change [11]	log2 fold change [12]	log2 fold change [13]	log2 fold change [14]	log2 fold change [15]	log2 fold change [16]	log2 fold change [17]	log2 fold change [18]	log2 fold change [19]	log2 fold change [20]
TIMM21 (UniProt Q9BVV7)	inactive: 0.014	inactive: 0.008	inactive: 0.035	inactive: 0.058	inactive: -0.121	inactive: 0.032	inactive: 0.067	inactive: -0.005	inactive: 0.005	inactive: 0.034	inactive: -0.133	active: -0.286	inactive: 0.034	inactive: -0.041	inactive: -0.028	inactive: -0.025	inactive: -0.044	inactive: -0.227		
TBRG4 (UniProt Q969Z0)	inactive: 0.08	inactive: -0.006	inactive: 0.073	inactive: 0.151	inactive: -0.072	inactive: 0.05	inactive: 0.185	inactive: -0.059	inactive: 0.099	inactive: 0.125	inactive: -0.361	inactive: -0.583	inactive: -0.003	inactive: 0.12	inactive: 0.009	inactive: 0.111	inactive: 0.047	active: -1.19		
TIMM29 (UniProt Q9BSF4)	inactive: -0.007	inactive: -0.015	inactive: -0.023	inactive: -0.102	inactive: -0.037	inactive: -0.031	inactive: 0.033	inactive: 0	inactive: 0.014	inactive: 0.004	inactive: 0.044	inactive: -0.071	inactive: 0.019	inactive: -0.013	inactive: -0.035	inactive: 0	inactive: -0.103	inactive: 0.062		
TK1 (UniProt P04183)	inactive: -0.035	inactive: 0.001	inactive: 0.01	inactive: -0.004	inactive: 0.014	inactive: 0.003	inactive: -0.012	inactive: -0.095	inactive: 0.011	inactive: 0.011	inactive: 0.039	inactive: 0.062	inactive: -0.039	inactive: 0.084	inactive: 0.001	inactive: -0.009	inactive: -0.075	inactive: -0.046		
